From article PMC9413943
No constants are given. Whether binding was seen depends on the method and setting. Binding seen in cells or lysates may run through a third protein. Here binding means that the protein was enriched with, or labelled near, the bait; the list need not be complete.

Amino acid sequences for entries named in this document (tags omitted).
UniProt Q99497: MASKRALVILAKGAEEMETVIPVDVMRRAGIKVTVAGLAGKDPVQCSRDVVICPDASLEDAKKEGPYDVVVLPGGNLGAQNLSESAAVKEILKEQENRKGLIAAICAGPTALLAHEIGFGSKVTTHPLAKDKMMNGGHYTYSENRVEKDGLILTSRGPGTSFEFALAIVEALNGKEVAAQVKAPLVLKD
UniProt Q7Z406: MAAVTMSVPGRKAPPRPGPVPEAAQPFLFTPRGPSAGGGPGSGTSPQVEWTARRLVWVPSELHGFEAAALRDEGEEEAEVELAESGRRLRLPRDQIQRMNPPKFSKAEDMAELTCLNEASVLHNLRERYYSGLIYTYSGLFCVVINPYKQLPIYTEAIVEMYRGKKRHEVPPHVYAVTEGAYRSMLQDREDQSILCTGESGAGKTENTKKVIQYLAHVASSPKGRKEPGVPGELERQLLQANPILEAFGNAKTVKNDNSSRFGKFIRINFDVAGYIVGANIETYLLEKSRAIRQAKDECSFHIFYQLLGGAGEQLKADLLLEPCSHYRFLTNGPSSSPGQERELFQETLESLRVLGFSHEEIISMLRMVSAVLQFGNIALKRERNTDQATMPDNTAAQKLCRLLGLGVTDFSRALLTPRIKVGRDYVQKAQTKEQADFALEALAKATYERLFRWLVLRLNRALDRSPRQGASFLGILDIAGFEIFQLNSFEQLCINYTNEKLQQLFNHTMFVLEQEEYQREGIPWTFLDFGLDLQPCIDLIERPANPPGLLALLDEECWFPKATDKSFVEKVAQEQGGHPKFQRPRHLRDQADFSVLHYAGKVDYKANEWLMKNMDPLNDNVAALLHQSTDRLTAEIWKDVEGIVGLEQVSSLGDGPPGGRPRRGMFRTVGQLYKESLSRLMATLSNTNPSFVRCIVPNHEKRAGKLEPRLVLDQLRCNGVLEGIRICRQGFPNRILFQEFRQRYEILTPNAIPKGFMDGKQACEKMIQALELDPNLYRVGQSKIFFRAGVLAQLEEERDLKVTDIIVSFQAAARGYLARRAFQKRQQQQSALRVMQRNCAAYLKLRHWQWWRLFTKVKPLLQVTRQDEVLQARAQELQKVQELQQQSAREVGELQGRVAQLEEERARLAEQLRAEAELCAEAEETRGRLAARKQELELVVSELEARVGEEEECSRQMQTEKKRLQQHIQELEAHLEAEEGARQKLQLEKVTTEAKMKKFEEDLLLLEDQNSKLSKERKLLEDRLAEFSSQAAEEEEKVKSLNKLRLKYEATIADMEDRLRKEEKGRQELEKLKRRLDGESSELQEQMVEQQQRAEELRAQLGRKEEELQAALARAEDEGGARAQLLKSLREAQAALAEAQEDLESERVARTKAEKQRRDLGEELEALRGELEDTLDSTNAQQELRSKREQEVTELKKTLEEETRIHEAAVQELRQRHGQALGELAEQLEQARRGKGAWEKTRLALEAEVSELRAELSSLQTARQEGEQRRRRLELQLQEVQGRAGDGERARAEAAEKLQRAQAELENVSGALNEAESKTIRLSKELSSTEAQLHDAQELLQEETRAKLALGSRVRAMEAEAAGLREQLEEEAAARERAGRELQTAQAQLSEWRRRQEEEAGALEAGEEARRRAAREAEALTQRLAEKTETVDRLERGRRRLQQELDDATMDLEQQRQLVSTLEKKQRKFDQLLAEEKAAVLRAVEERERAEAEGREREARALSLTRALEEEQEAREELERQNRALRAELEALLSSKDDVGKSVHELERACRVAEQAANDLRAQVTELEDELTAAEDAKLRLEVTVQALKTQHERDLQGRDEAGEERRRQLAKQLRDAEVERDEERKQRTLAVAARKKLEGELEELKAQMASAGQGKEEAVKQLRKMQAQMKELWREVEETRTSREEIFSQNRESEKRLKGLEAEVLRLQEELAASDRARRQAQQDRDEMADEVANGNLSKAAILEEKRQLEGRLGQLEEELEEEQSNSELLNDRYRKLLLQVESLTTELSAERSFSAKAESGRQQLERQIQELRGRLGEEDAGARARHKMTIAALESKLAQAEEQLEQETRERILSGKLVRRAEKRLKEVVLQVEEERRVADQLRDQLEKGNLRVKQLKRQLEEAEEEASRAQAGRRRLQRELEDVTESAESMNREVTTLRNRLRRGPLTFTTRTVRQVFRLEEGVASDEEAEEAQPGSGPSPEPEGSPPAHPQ
UniProt P11142: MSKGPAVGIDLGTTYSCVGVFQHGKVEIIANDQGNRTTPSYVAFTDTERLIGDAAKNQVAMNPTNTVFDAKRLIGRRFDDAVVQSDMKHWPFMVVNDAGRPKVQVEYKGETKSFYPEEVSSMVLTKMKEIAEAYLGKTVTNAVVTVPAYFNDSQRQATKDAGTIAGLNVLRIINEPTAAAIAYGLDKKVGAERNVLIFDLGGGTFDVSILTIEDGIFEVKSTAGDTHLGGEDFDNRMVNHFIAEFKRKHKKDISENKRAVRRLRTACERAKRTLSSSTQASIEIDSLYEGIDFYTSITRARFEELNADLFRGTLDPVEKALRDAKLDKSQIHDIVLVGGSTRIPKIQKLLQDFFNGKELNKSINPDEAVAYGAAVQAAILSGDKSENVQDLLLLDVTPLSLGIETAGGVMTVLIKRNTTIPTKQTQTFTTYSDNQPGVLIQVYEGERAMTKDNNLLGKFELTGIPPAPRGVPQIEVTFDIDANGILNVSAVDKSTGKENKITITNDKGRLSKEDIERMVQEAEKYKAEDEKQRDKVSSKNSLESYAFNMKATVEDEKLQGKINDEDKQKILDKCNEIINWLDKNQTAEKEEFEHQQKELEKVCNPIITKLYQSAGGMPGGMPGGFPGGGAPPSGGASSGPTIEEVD

Molecular target: DJ-1/PARK7 (Parkinson disease protein 7), precipitated by the DJ-1 antibody from K150 cells (human (endogenous in KYSE-150)) (UniProt Q99497)
Assay: affinity purification with mass spectrometry; K150 cell samples co-immunoprecipitated with the DJ-1 antibody, LC-MS/MS; named hits chosen by overlap with RNA-seq DEGs

binding | Substance
binds | MYH14 (from UniProt Q7Z406 1-1995)
binds | HSC70/HSPA8 (Heat shock cognate 71 kDa protein) (from UniProt P11142 1-646)
